# In the supplement of paper PMC8728848:
# The list shows a part of the results.
# Assays:
# Assay in all cases: glycan array binding signal (z-score within array); higher = stronger binding
# Conditions in all cases: glycan notation: IUPAC condensed, linker removed
# [1] = target: Gal(a1-3)Gal(b1-4)GlcNAc(b1-2)Man
# Method in brief: (§1)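 From the Consortium for Functional Glycomics database, 3228 arrays were curated, keeping only those whose protein sequence was available. Binding is given as a within-array Z-score averaged across arrays sharing a protein sequence and across linkers. Negative Z-scores can be read as non-binding.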
# [2] = target: Gal(a1-3)Gal(b1-4)GlcNAc(b1-2)Man(a1-3)[Gal(a1-3)Gal(b1-4)GlcNAc(b1-2)Man(a1-6)]Man(b1-4)GlcNAc(b1-4)GlcNAc
# Method in brief: as §1
# [3] = target: Gal(a1-3)Gal(b1-4)GlcNAc(b1-3)GalNAc
# Method in brief: as §1
# [4] = target: Gal(a1-3)Gal(b1-4)GlcNAc(b1-6)GalNAc
# Method in brief: as §1
# [5] = target: Gal(a1-3)Gal(b1-4)[Fuc(a1-3)]GlcNAc
# Method in brief: as §1
# [6] = target: Gal(a1-3)Gal(b1-4)[Fuc(a1-3)]GlcNAc(b1-2)Man(a1-3)[Gal(a1-3)Gal(b1-4)[Fuc(a1-3)]GlcNAc(b1-2)Man(a1-6)]Man(b1-4)GlcNAc(b1-4)GlcNAc
# Method in brief: as §1
# Gal(a1-3)GalNAc = target: Gal(a1-3)GalNAc
# Method in brief: as §1
# [7] = target: Gal(a1-3)[Gal(a1-4)]Gal(b1-4)GlcNAc
# Method in brief: as §1
# [8] = target: Gal(a1-4)Gal(b1-3)GlcNAc(b1-2)Man(a1-3)[Gal(a1-4)Gal(b1-3)GlcNAc(b1-2)Man(a1-6)]Man(b1-4)GlcNAc(b1-4)GlcNAc
# Method in brief: as §1
# Gal(a1-4)Gal(b1-4)Glc = target: Gal(a1-4)Gal(b1-4)Glc
# Method in brief: as §1
# Gal(a1-4)Gal(b1-4)GlcNAc = target: Gal(a1-4)Gal(b1-4)GlcNAc
# Method in brief: as §1
# [9] = target: Gal(a1-4)Gal(b1-4)GlcNAc(b1-2)Man(a1-3)[Gal(a1-4)Gal(b1-4)GlcNAc(b1-2)Man(a1-6)]Man(b1-4)GlcNAc(b1-4)GlcNAc
# Method in brief: as §1
# [10] = target: Gal(a1-4)Gal(b1-4)GlcNAc(b1-3)Gal(b1-4)Glc
# Method in brief: as §1
# Gal(a1-4)GlcNAc = target: Gal(a1-4)GlcNAc
# Method in brief: as §1
# Gal(a1-6)Glc = target: Gal(a1-6)Glc
# Method in brief: as §1
# Gal(b1-2)Gal = target: Gal(b1-2)Gal
# Method in brief: as §1
# Gal(b1-3)Gal = target: Gal(b1-3)Gal
# Method in brief: as §1
# Gal(b1-3)Gal(b1-4)GlcNAc = target: Gal(b1-3)Gal(b1-4)GlcNAc
# Method in brief: as §1
# Gal(b1-3)GalNAc = target: Gal(b1-3)GalNAc
# Method in brief: as §1
# [11] = target: Gal(b1-3)GalNAc(a1-3)[Fuc(a1-2)]Gal(b1-4)Glc
# Method in brief: as §1
# [12] = target: Gal(b1-3)GalNAc(a1-3)[Fuc(a1-2)]Gal(b1-4)GlcNAc
# Method in brief: as §1
# Gal(b1-3)GalNAc(b1-3)Gal = target: Gal(b1-3)GalNAc(b1-3)Gal
# Method in brief: as §1
# [13] = target: Gal(b1-3)GalNAc(b1-3)Gal(a1-4)Gal(b1-4)Glc
# Method in brief: as §1
# [14] = target: Gal(b1-3)GalNAc(b1-4)Gal(b1-4)Glc
# Method in brief: as §1
# [15] = target: Gal(b1-3)GalNAc(b1-4)[Neu5Ac(a2-3)]Gal(b1-4)Glc
# Method in brief: as §1
# Gal(b1-3)GlcNAc = target: Gal(b1-3)GlcNAc
# Method in brief: as §1
# [16] = target: Gal(b1-3)GlcNAc(a1-3)Gal(b1-4)GlcNAc
# Method in brief: as §1
# [17] = target: Gal(b1-3)GlcNAc(a1-6)Gal(b1-4)GlcNAc
# Method in brief: as §1
# Gal(b1-3)GlcNAc(b1-2)Man = target: Gal(b1-3)GlcNAc(b1-2)Man
# Method in brief: as §1
# [18] = target: Gal(b1-3)GlcNAc(b1-2)Man(a1-3)[Gal(b1-3)GlcNAc(b1-2)Man(a1-6)]Man(b1-4)GlcNAc(b1-4)GlcNAc
# Method in brief: as §1
# [19] = target: Gal(b1-3)GlcNAc(b1-2)Man(a1-3)[Gal(b1-3)GlcNAc(b1-2)Man(a1-6)]Man(b1-4)GlcNAc(b1-4)[Fuc(a1-6)]GlcNAc
# Method in brief: as §1
# [20] = target: Gal(b1-3)GlcNAc(b1-2)Man(a1-3)[GlcNAc(b1-4)][Gal(b1-3)GlcNAc(b1-2)Man(a1-6)]Man(b1-4)GlcNAc(b1-4)GlcNAc
# Method in brief: as §1
# [21] = target: Gal(b1-3)GlcNAc(b1-2)[Gal(b1-3)GlcNAc(b1-6)]Man(a1-6)[Gal(b1-3)GlcNAc(b1-2)Man(a1-3)]Man(b1-4)GlcNAc(b1-4)GlcNAc
# Method in brief: as §1
# [22] = target: Gal(b1-3)GlcNAc(b1-3)Gal(b1-3)GlcNAc
# Method in brief: as §1
# [23] = target: Gal(b1-3)GlcNAc(b1-3)Gal(b1-4)Glc
# Method in brief: as §1
# [24] = target: Gal(b1-3)GlcNAc(b1-3)Gal(b1-4)GlcNAc
# Method in brief: as §1
# [25] = target: Gal(b1-3)GlcNAc(b1-3)Gal(b1-4)GlcNAc(b1-2)Man(a1-3)[Gal(b1-3)GlcNAc(b1-3)Gal(b1-4)GlcNAc(b1-2)Man(a1-6)]Man(b1-4)GlcNAc(b1-4)GlcNAc
# Method in brief: as §1
binder,measurement,setting,value
LF82 (Escherichia coli) (protein) ADWGPCRTASGDPFIFVTSFTKNIQNPTDNVTGQTYPDFYQWALGDKYSGVCECPSPNPTEARPTLYKTESTLAAGHNSTYFKITNNLEVSTRVYIANVGNVQVPFINKSNSQPGRECDQPTFGWTTGSKGQLSLYIAKPFVGEQNIPQTIIVSVFGTKKENVYSSVPISQVLLSGKVTVTQGCELAAGTSLDIDFGEYQAHDFKGRTGQPPQNVQKIQKELTFNCTNISDGVHIYLSLEGTPNAAYPSAISLGNADVGAVIEDGKGNILKPNDSNSLLEMNPGSLYEYVKRKVTTTITAYPVSTTGKLPAAGDYSGVATMHVELDGGGGGGGGGGATTDLGAKGTLKFSLKISQGHHHHHH,glycan array binding signal (z-score),[1],-0.483
same,glycan array binding signal (z-score),[2],0.554
same,glycan array binding signal (z-score),[3],-0.989
same,glycan array binding signal (z-score),[4],1.11
same,glycan array binding signal (z-score),[5],-1.48
same,glycan array binding signal (z-score),[6],1.79
same,glycan array binding signal (z-score),Gal(a1-3)GalNAc,0.188
same,glycan array binding signal (z-score),[7],-0.81
same,glycan array binding signal (z-score),[8],-0.975
same,glycan array binding signal (z-score),Gal(a1-4)Gal(b1-4)Glc,-0.738
same,glycan array binding signal (z-score),Gal(a1-4)Gal(b1-4)GlcNAc,-0.545
same,glycan array binding signal (z-score),[9],0.185
same,glycan array binding signal (z-score),[10],-1.42
same,glycan array binding signal (z-score),Gal(a1-4)GlcNAc,-1.69
same,glycan array binding signal (z-score),Gal(a1-6)Glc,-1
same,glycan array binding signal (z-score),Gal(b1-2)Gal,-0.109
same,glycan array binding signal (z-score),Gal(b1-3)Gal,-0.896
same,glycan array binding signal (z-score),Gal(b1-3)Gal(b1-4)GlcNAc,-0.773
same,glycan array binding signal (z-score),Gal(b1-3)GalNAc,-0.509
same,glycan array binding signal (z-score),[11],2.29
same,glycan array binding signal (z-score),[12],-1.51
same,glycan array binding signal (z-score),Gal(b1-3)GalNAc(b1-3)Gal,-1.33
same,glycan array binding signal (z-score),[13],0.365
same,glycan array binding signal (z-score),[14],-0.817
same,glycan array binding signal (z-score),[15],0.679
same,glycan array binding signal (z-score),Gal(b1-3)GlcNAc,-0.331
same,glycan array binding signal (z-score),[16],-0.513
same,glycan array binding signal (z-score),[17],-0.262
same,glycan array binding signal (z-score),Gal(b1-3)GlcNAc(b1-2)Man,-1.28
same,glycan array binding signal (z-score),[18],0.23
same,glycan array binding signal (z-score),[19],-0.589
same,glycan array binding signal (z-score),[20],1.02
same,glycan array binding signal (z-score),[21],-0.229
same,glycan array binding signal (z-score),[22],0.419
same,glycan array binding signal (z-score),[23],-0.76
same,glycan array binding signal (z-score),[24],1.03
same,glycan array binding signal (z-score),[25],-0.239

# Looked up one by one from above, 3 records:
binder,measurement,setting,value
LF82 (Escherichia coli) (protein) ADWGPCRTASGDPFIFVTSFTKNIQNPTDNVTGQTYPDFYQWALGDKYSGVCECPSPNPTEARPTLYKTESTLAAGHNSTYFKITNNLEVSTRVYIANVGNVQVPFINKSNSQPGRECDQPTFGWTTGSKGQLSLYIAKPFVGEQNIPQTIIVSVFGTKKENVYSSVPISQVLLSGKVTVTQGCELAAGTSLDIDFGEYQAHDFKGRTGQPPQNVQKIQKELTFNCTNISDGVHIYLSLEGTPNAAYPSAISLGNADVGAVIEDGKGNILKPNDSNSLLEMNPGSLYEYVKRKVTTTITAYPVSTTGKLPAAGDYSGVATMHVELDGGGGGGGGGGATTDLGAKGTLKFSLKISQGHHHHHH,glycan array binding signal (z-score),[17],-0.262
same,glycan array binding signal (z-score),[9],0.185
same,glycan array binding signal (z-score),Gal(b1-3)GlcNAc(b1-2)Man,-1.28
